# Out of some 320,000 compounds screened, about 22,000 (6.9%) were called active. The inconclusive results got no clear call from the source; some entries with a clear call stand among them for comparison. Calls come from the whole dose curve; as a rule, active = well fitted inhibition curve with a large enough effect; inconclusive = small, poorly fitted or top-dose-only effect, or another doubt; inactive = no such curve, though single readings can be large or run the other way. Potencies beside an inconclusive call are fits to weak or partial responses and may not hold up.
# Experiment: Primary qHTS for delayed death inhibitors of the malarial parasite plastid, 96 hour incubation
# Details: P. falciparum luciferase reporter growth; series mostly up to 28.7 µM; activity change, negative = inhibition: at the top concentration
# How it was run: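 P. falciparum expressing integrated firefly luciferase grown in erythrocytes (2% hematocrit, 0.05% parasitemia final) with compounds for 96 hours at 37 C, 5% CO2. Growth inhibition read as loss of luminescence after adding luciferase detection reagent.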
# % is set by controls: 0 for no effect and ±100 for the full control effect; potency is the fitted concentration of half-maximal effect.
SMILES,Potency,"activity change, negative = inhibition"
CCOC(=O)c1ccc(NC(=S)NCCC2=CCCCC2)cc1,"inconclusive: 14.7 µM [inhibitor, single point]",–
CCCNC(=S)Nc1cc2oc3ccccc3c2cc1OC,active: 3.29 µM,–
CC(Sc1ccccn1)C(=O)NC1CCCC1 (stereo unspecified),–,inactive: 21.5%
O=C(NCCOCCOCCNC(=O)c1ccccc1)c1ccccc1,"inconclusive: 2.33 µM [inhibitor, full curve, poor fit]",–
CN(C)C(=O)C(Sc1ccc(S(=O)(=O)N2CCCC2)cn1)c1ccccc1 (stereo unspecified),"inconclusive: 14.7 µM [inhibitor, single point]",–
Cc1cc(N2C(=O)C=CC2=O)c([N+](=O)[O-])cc1C,"inconclusive: 18.5 µM [inhibitor, single point]",–
CNC(=O)COc1coc(CN2CCN(C(=O)c3ccco3)CC2)cc1=O,"inconclusive: 2.08 µM [inhibitor, full curve, poor fit]",–
O=C(Nc1cc(Cl)c(O)c(Cl)c1)C1CCCO1 (stereo unspecified),"inconclusive: 18.5 µM [inhibitor, single point]",–
CC(C)C(NC(=O)c1ccco1)C(=O)NCC(c1ccco1)N1CCCCC1 (stereo unspecified),active: 2.08 µM,–
Cn1c(=O)n(C)c2cc(NC(=O)CSc3ccccc3)ccc21,"inconclusive: 11.7 µM [inhibitor, single point]",–
CN(CC(=O)NCc1ccco1)S(=O)(=O)c1ccc2c(c1)n(C)c(=O)c(=O)n2C,–,inactive: 3.47%
COc1cccc(C(=O)Nc2ccccc2NC(=O)c2cccc(OC)c2)c1,active: 14.7 µM,–
Cc1nc2ccccc2c(=O)n1-c1ccc(NS(=O)(=O)c2ccc(F)cc2)cc1,"inconclusive: 18.5 µM [inhibitor, single point]",–
O=C(CSc1ccc([N+](=O)[O-])cn1)Nc1nccs1,"inconclusive: 18.5 µM [inhibitor, single point]",–
CCOc1cc(N2CCOCC2)c(OCC)cc1NC(=O)CC12CC3CC(CC(C3)C1)C2,"inconclusive: 9.28 µM [inhibitor, partial curve, poor fit]",–
CCOc1cc(C)c(-c2onc(C(F)(F)F)c2-c2csc(C)n2)c(O)c1,active: 1.85 µM,–
CCCCCCSc1cccc(-c2nc3ccc(Cl)cn3c2NCc2ccccc2)c1,"inconclusive: 4.15 µM [inhibitor, full curve]",–
COc1ccc(C2=NN(CC(=O)NCC(OC)OC)C(=O)CC2)cc1,–,inactive: 16.9%
Cc1cc(C(C)(C)C)oc1C(=O)N(CC(=O)NC1CCCC1)Cc1ccc(Cl)cc1,"inconclusive: 18.5 µM [inhibitor, single point]",–
CC(=O)Nc1ccc2oc(-c3ccccc3)nc2c1,–,inactive: -15.9%
Cc1ccc(NNC2CC(=O)N(c3cccc(Cl)c3)C2=O)cc1 (stereo unspecified),–,inactive: 284%
COc1ccc(C(=O)NCCS(=O)(=O)NCCc2ccccc2)cc1,–,inactive: 128%
CN(C)C(=O)[C@@H]1C[C@H]1[C@@H](NC(=O)OCc1ccccc1)c1ccccc1,–,inactive: -19.2%

# Whole records, quoted from the list. Order of values: Potency | activity change, negative = inhibition
# Cc1cc(C(C)(C)C)oc1C(=O)N(CC(=O)NC1CCCC1)Cc1ccc(Cl)cc1 is listed with inconclusive: 18.5 µM [inhibitor, single point] | –
# COc1ccc(C(=O)NCCS(=O)(=O)NCCc2ccccc2)cc1 is listed with – | inactive: 128%
# CN(C)C(=O)C(Sc1ccc(S(=O)(=O)N2CCCC2)cn1)c1ccccc1 (stereo unspecified) is listed with inconclusive: 14.7 µM [inhibitor, single point] | –

# (continued)

SMILES,Potency,"activity change, negative = inhibition"
O=C(N/N=C/c1cccc(C(F)(F)F)c1)c1cc2c(s1)-c1ccccc1CC2,–,inactive: 56.9%
Cc1ccc(S(=O)(=O)c2cc3c(=O)n4cccc(C)c4nc3n(Cc3ccncc3)c2=N)cc1,"inconclusive: 3.29 µM [inhibitor, partial curve]",–
Cc1ccc(-n2nc3c(SCCN4CCOCC4)nnc(C)c3c2C)cc1,"inconclusive: 0.117 µM [inhibitor, full curve, poor fit]",–
Cc1cc(NCc2ccccn2)n2nc(C)c(-c3ccc(Cl)cc3)c2n1,active: 2.94 µM,–
c1coc(-c2nc3nc4ccccc4nc3n2-c2ccc3c(c2)OCCO3)c1,"inconclusive: 13.1 µM [inhibitor, single point]",–
CCOC(=O)n1c(=O)[nH]c2ccc(Br)cc21,–,inactive: 10.6%
CCn1[nH]c(=O)c(=Nc2c(C)n(C)n(-c3ccccc3)c2=O)cc1-c1ccc(Cl)cc1,"inconclusive: 18.5 µM [inhibitor, single point]",–
CCC(C)n1cnc2c(c1=O)c1nc3ccccc3nc1n2Cc1ccc(OC)cc1 (stereo unspecified),"inconclusive: 0.0928 µM [inhibitor, full curve, poor fit]",–
COc1ccc(NC(=O)c2ccc(NS(=O)(=O)c3c(C)noc3C)cc2)cc1OC,"inconclusive: 10.4 µM [inhibitor, single point]",–
CCC(C)NC(=O)CSc1nc2ccc(N3CCOCC3)cc2c(=O)n1CCc1ccccc1 (stereo unspecified),"inconclusive: 18.5 µM [inhibitor, single point]",–
N#Cc1cc(NC2CCCC2)c([N+](=O)[O-])cc1C#N,"inconclusive: 18.5 µM [inhibitor, single point]",–
COc1ccccc1N(Cc1cc2cccc(C)c2[nH]c1=O)C(=O)C(C)C,"inconclusive: 13.1 µM [inhibitor, single point]",–
COc1ccc(C(=O)NC(=S)NC2CCSC2=O)cc1 (stereo unspecified),–,inactive: 96.1%
CCC(CC)c1nnc(NC(=O)C2COc3ccccc3O2)s1 (stereo unspecified),–,inactive: 154%
CCn1c2ccccc2c2cc(NS(=O)(=O)c3ccc(C)cc3)ccc21,"inconclusive: 18.5 µM [inhibitor, single point]",–
O=C(O)C1CCCN(S(=O)(=O)c2ccc(Br)s2)C1 (stereo unspecified),–,inactive: 0%
O=C(CSc1nc2ncc(Br)cc2[nH]1)Nc1ccccc1-c1ccccc1,"inconclusive: 18.5 µM [inhibitor, single point]",–
O=C(CCN1CCCCC1)c1ccccc1,–,inactive: -8.83%
Cc1ccc(-n2c(C)cc(C(=O)CN3CCCCC3)c2C)cc1,"inconclusive: 10.4 µM [inhibitor, single point]",–
O=C(C1CCN(S(=O)(=O)c2ccc(Cl)cc2)CC1)N1CCCCCCC1,"inconclusive: 10.4 µM [inhibitor, single point]",–
CCOC(=O)Nc1ccc(C)cc1NC(=O)OCC,"inconclusive: 0.117 µM [inhibitor, full curve, poor fit]",–
O=c1cc(CO)oc(C(Nc2cccc(C(F)(F)F)c2)c2ccccn2)c1O (stereo unspecified),"inconclusive: 10.4 µM [inhibitor, single point]",–
COc1cc(NC(=O)C2CCCN2C(=O)C2CCC(C)CC2)cc(OC)c1OC (stereo unspecified),"inconclusive: 20.8 µM [inhibitor, partial curve, poor fit]",–

# Source: PubChem BioAssay AID504834 (National Center for Advancing Translational Sciences (NCATS), 2011)
